Laboratory results as given in paper PMC7904567.
These are yes or no findings as the source states them, for the method shown. In cells and extracts the contact can be indirect. For some assays here: Binding can be weak; no strength is given. For some assays here: Tags and fused reporters may be left off the sequences shown.

The chains behind the UniProt entries cited, without tags or fusion partners. Where a name states a change or a piece, a line headed by the entry shows the natural chain unless it says otherwise.
UniProt P34067: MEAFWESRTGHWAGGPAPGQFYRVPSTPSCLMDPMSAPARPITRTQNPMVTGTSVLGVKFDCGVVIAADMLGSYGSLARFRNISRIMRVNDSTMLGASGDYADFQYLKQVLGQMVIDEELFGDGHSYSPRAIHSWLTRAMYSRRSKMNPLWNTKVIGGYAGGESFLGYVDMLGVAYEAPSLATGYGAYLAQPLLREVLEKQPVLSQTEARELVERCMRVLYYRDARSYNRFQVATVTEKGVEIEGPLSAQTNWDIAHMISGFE

Experiments:
Assay in all cases: co-IP; lysates of co-transfected HEK293T cells; MicroMACS anti-GFP Microbeads precipitate the EGFP construct; lysis and washes in 50 mM Tris-HCl pH 8.0, 150 mM NaCl, 1% Triton X-100; immunoblot of the eluate
[1] = target: T1, EGFP-Bsn9 (aa 1653–1963, 33 kDa) (rat) (UniProt O88778)
T1 sequence: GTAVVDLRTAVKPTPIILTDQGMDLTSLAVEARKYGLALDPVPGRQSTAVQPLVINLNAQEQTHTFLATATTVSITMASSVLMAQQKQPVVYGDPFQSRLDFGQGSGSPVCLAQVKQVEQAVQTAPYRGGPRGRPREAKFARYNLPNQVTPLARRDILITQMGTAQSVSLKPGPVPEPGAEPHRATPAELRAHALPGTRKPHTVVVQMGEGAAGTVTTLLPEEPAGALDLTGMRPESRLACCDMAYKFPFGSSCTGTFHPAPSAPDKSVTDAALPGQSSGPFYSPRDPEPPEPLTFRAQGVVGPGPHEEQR

[2] = target: T2, Bsn3 (aa 2088–2563) (rat) (UniProt O88778)
T2 sequence: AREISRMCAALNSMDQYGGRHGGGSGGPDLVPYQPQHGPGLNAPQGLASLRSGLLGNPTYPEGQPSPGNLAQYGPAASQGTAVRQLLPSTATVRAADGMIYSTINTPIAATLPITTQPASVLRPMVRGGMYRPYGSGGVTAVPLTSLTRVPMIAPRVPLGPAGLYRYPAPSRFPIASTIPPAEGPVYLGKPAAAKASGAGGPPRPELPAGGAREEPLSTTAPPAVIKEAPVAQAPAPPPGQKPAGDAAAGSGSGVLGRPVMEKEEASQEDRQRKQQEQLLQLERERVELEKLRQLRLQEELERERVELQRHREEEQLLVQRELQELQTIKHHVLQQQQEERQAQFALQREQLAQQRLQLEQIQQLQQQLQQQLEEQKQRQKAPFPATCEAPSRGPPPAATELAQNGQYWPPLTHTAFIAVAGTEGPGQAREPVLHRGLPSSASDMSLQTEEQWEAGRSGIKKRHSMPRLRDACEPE

[3] = target: T3, EGFP-Bsn4 (aa 2715–3013, 33 kDa) (rat) (UniProt O88778)
T3 sequence: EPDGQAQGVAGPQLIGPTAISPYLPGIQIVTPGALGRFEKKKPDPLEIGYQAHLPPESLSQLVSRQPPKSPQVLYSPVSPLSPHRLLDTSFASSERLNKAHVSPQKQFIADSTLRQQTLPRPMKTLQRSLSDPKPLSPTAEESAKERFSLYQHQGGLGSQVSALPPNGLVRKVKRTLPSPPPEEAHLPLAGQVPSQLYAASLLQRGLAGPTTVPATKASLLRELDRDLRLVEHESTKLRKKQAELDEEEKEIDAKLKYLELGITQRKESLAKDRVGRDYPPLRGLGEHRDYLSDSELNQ

[4] = target: T4, EGFP-Bsn7 (aa 1653–1878, 24 kDa) (rat) (UniProt O88778)
T4 sequence: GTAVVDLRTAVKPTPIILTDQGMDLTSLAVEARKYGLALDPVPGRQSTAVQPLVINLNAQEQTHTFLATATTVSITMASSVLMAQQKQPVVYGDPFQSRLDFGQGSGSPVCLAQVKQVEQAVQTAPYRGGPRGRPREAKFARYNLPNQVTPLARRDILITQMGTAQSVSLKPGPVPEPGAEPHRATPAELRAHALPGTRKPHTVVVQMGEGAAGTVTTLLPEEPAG

[5] = target: T5, Bsn5 (aa 2715–2820 of NP_062019.2, 11 kDa) (rat) (UniProt O88778)
T5 sequence: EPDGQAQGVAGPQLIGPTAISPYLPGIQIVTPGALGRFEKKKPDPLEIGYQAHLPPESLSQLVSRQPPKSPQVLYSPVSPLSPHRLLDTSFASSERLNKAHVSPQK

[6] = target: T6, EGFP-Bsn10 (aa 2013–2087, 8 kDa) (rat) (UniProt O88778)
T6 sequence: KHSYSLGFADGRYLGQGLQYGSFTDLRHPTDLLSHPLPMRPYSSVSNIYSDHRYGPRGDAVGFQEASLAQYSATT

[7] = target: T7, EGFP-Bsn8 (aa 1964–2087, 14 kDa) (rat) (UniProt O88778)
T7 sequence: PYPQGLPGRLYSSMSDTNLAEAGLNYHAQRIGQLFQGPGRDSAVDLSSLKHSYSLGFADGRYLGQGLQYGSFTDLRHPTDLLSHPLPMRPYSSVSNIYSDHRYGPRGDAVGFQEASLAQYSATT

Substance	binding [1]	binding [2]	binding [3]	binding [4]	binding [5]	binding [6]	binding [7]
flag-ΔNPSMB4 (aa 46–264) (from UniProt P34067) (domain or fragment)	binds	no binding	binds	binds	no binding	binds	binds
flag-ΔNΔC-PSMB4 (aa 45–249) (from UniProt P34067) (domain or fragment)			no binding				
